In the supplement of paper PMC8166895:
Several values for one entry are separate records, joined by “and”; a condition that tells them apart may be missing. Equal values may be shown once. Where a name gives a salt, the structure may show the parent alone. Some of the results follow. Most values lie at the level of the controls, where differences are scatter.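 Melting temperature was read by differential scanning fluorimetry in a single-replicate pilot screen of a library of approved drugs and clinical or known-target compounds. Compounds raising the melting point by at least 2 °C were the top stabilizing hits, and negative shifts mean destabilization.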

Tested on: SARS-CoV-2 main protease (Mpro, nsp5)
Assay: thermal shift ΔTm of Mpro relative to plate average Tm; higher = stronger thermal stabilization of Mpro (binding)
Details: 10 µM; protein concentration 1 µM

| SMILES | thermal shift ΔTm of Mpro |
| --- | --- |
| O=P(O)(NCCCl)NCCCl [Palifosfamide] | -0.0831 °C |
| CN(C)CC/C=C1/c2ccccc2Sc2ccc(Cl)cc21 [Chlorprothixene] | -0.0143 °C |
| CN1CCN(Cc2ccc(NC(=O)Cc3ccc(Oc4cc(NC(=O)C5CC5)ncn4)cc3)cc2C(F)(F)F)CC1 | -0.0715 °C |
| C1=Cc2ccccc2Nc2ccccc21 [Iminostilbene] | -0.194 °C |
| COc1cc(-c2cn(C)c(=O)c3cnccc23)cc(OC)c1CN(C)C | 0.00184 °C |
| CCOC(=O)C1=C[C@@H](OC(CC)CC)[C@H](NC(C)=O)[C@@H](N)C1 [Oseltamivir phosphate] | -0.0194 °C |
| C[C@]12CCC(=O)C=C1CC[C@@H]1[C@@H]2[C@@H](O)C[C@@]2(C)[C@H]1CC[C@]2(O)C(=O)CO [Hydrocortisone] | -0.206 °C |
| C=CC(=O)Nc1cccc(C)c1Nc1ncc2cc(-c3c(Cl)c(OC)cc(OC)c3Cl)ccc2n1 | -0.134 °C |
| N[C@@H](CSCCB(O)O)C(=O)O | 0.0208 °C |
| COc1ccccc1C(=O)Nc1cc2c(cc1N1CCCC1)n(C)c(=O)n2C | 0.161 °C |
| O=C(CCc1ccc(O)cc1)c1c(O)cc(O)cc1O[C@@H]1O[C@H](CO)[C@@H](O)[C@H](O)[C@H]1O [Phlorizin] | -0.164 °C |
| Oc1ncnc2[nH]ncc12 [Allopurinol] | 0.0245 °C |
| CN(N=O)C(=O)NC1C(O)OC(CO)C(O)C1O (configuration not stated) [Streptozotocin (STZ)] | 0.227 °C |
| CC(=O)c1ccc(O)cc1 [Piceol] | -0.0331 °C |
| C=C[C@]1(C)C[C@@H](OC(=O)CS[C@@H]2C[C@H]3CC[C@@H](C2)N3C)[C@]2(C)[C@H](C)CC[C@]3(CCC(=O)[C@H]32)[C@@H](C)[C@@H]1O [Retapamulin] | 0.0526 °C |
| COCc1c(-c2ccc(NC(=O)Nc3cc(C(F)(F)F)ccc3F)c(F)c2)c2c(N)ncnn2c1CN1CCOCC1 | -0.195 °C |
| CO/N=C(\C(=O)N[C@@H]1C(=O)N2C(C(=O)OCOC(=O)C(C)(C)C)=C(/C=C\c3scnc3C)CS[C@H]12)c1csc(N)n1 [Cefditoren Pivoxil] | 0.00186 °C |
| CCC(=O)N1CCN(c2ccc(-n3c(=O)ccc4cnc5ccc(-c6cnc7ccccc7c6)cc5c43)cc2C(F)(F)F)CC1 [Torin 1] | -0.0294 °C |
| Cn1cnc(-c2cc3nccc(Oc4ccc(NC(=S)NC(=O)Cc5ccccc5)cc4F)c3s2)c1 | 0.449 °C |
| Cc1onc(-c2ccccc2)c1-c1ccc(S(N)(=O)=O)cc1 [Valdecoxib] | 0.0975 °C |
| CCCc1cc(=O)[nH]c(=S)[nH]1 [Propylthiouracil] | 0.144 °C |

| SMILES | thermal shift ΔTm of Mpro |
| --- | --- |
| C=C1C(=O)O[C@@H]2/C=C(\C)CC/C=C(\C)CC[C@@H]12 [Costunolide] | 0.265 °C |
| O=C(Nc1ccccc1)c1cc([N+](=O)[O-])ccc1Cl | -0.0782 °C |
| O=c1cc(-c2cccc3c2Sc2ccccc2S3)oc(N2CCOCC2)c1 | -0.212 °C |
| COc1ccc2cc(C(=O)O)ccc2c1 [6-Methoxy-2-naphthoic acid] | 0.141 °C |
| CN1CCc2c(c3ccccc3n2Cc2ccccc2)C1 [Mebhydrolin napadisylate] | 0.0326 °C |
| CN1CCc2c(c3ccccc3n2Cc2ccccc2)C1 [Mebhydroline] | -0.158 °C |
| Fc1ccc(C(c2ccc(F)cc2)N2CCN(C/C=C/c3ccccc3)CC2)cc1 [Flunarizine 2HCl] | -0.013 °C |
| C[C@H]1CCC/C=C/[C@@H]2C[C@H](O)C[C@H]2[C@H](O)/C=C/C(=O)O1 [Brefeldin A] | -0.0362 °C |
| Oc1ccc([C@H]2COc3cc(O)ccc3C2)cc1 [Equol] | -0.381 °C |
| Cc1ccc(Nc2c(F)cccc2Cl)c(CC(=O)O)c1 [Lumiracoxib] | -0.0685 °C |
| O=C(NC1CCNCC1)[C@@H]1CC[C@@H]2CN1C(=O)N2OS(=O)(=O)O [Relebactam] | 0.0837 °C |
| CC(C)n1cnc2c(NCc3ccccc3)nc(NCCCO)nc21 [Bohemine] | -0.0208 °C |
| N#Cc1c(O)c2c(-c3ccc(-c4ccccc4O)cc3)csc2[nH]c1=O | -0.0693 °C |
| Cc1nc2ccc(-n3ncc(C(=O)c4cc5ccccc5[nH]4)c3N)cc2[nH]1 | 0.116 °C |
| CCCCC(=O)O[C@H]1CC[C@H]2[C@@H]3CCc4cc(O)ccc4[C@H]3CC[C@]12C [Estradiol valerate] | 0.354 °C |
| N=C(N)c1ccc(OCCCCCOc2ccc(C(=N)N)cc2)cc1 [Pentamidine] | 0.13 °C |
| Cc1[nH]c2ccccc2c1CCNC(=O)c1cccs1 | -0.0629 °C |
| Cn1c(NCCN(CCO)CCCc2ccc([N+](=O)[O-])cc2)cc(=O)n(C)c1=O [Nifekalant hydrochloride] | 0.0483 °C |
| Cc1nc(Nc2cnn(C3CCNCC3)c2)nc2c1N(C)C(=O)c1cc3ccccc3cc1N2C | -0.386 °C |
| OCCOCCN1CCN(C2=Nc3ccccc3Sc3ccccc32)CC1 [Quetiapine Fumarate] | -0.0955 °C |
| CCC(=O)O[C@@H](O[P@](=O)(CCCCc1ccccc1)CC(=O)N1C[C@H](C2CCCCC2)C[C@H]1C(=O)O)C(C)C [Fosinopril sodium] | -0.125 °C |

| SMILES | thermal shift ΔTm of Mpro |
| --- | --- |
| O=C(c1c2ccccc2cc2ccccc12)N1CCC(N2CCC[C@@H](C(=O)N3CCOCC3)C2)CC1 | 0.164 °C |
| COc1cccc2c1C(=O)c1c(O)c3c(c(O)c1C2=O)C[C@@](O)(C(=O)CO)C[C@@H]3O[C@H]1C[C@H](N)[C@H](O)[C@H](C)O1 [Doxorubicin (Adriamycin)] | 0.17 °C |
| Cc1cc(C(=O)NOCCO)c(Nc2ccc(I)cc2F)n(C)c1=O | -0.236 °C |
| CC1(C)S[C@@H]2[C@H](NC(=O)[C@H](N)c3ccc(O)cc3)C(=O)N2[C@H]1C(=O)O [Amoxicillin Sodium] | -0.0326 °C |
| CC1(C)S[C@@H]2[C@H](NC(=O)[C@H](N)c3ccc(O)cc3)C(=O)N2[C@H]1C(=O)O [Amoxicillin] | 0.109 °C |
| CC1(C)S[C@@H]2[C@H](NC(=O)[C@H](N)c3ccc(O)cc3)C(=O)N2[C@H]1C(=O)O [Amoxicillin trihydrate] | -0.128 °C |
| COc1cc(-c2cn(C)c(=O)c3cnccc23)c(OC)cc1CN(C)C | -0.0485 °C |
| O=C([C@@H](Cc1cccc(C(F)(F)F)c1)NS(=O)(=O)c1cc(F)c2c(c1)CCNC2)N1CCCC1 | -0.382 °C |
| Cc1cccc(C(=O)O)c1O [Hydroxytoluic acid] | 0.133 °C |
| CCCc1cc(-c2nc(-c3ccc(C)cc3)cs2)ccn1 [Fatostatin] | 0.0522 °C |
| O=C(C=Cc1ccccc1)NC(NC(=S)Nc1ccc(Cl)cc1)C(Cl)(Cl)Cl (configuration not stated) | 1.39 °C |
| Cc1ccc2c(Br)cc(Br)c(OC(=O)c3ccccc3)c2n1 [Broxaldine] | -0.328 °C |
| Nc1nc(Cl)nc2c1ncn2[C@H]1C[C@H](O)[C@@H](CO)O1 [Cladribine] | 0.226 °C |
| COC(=O)Nc1nc2cc(C(=O)c3ccccc3)ccc2[nH]1 [Mebendazole] | -0.0312 °C |
| CC1(C)S[C@@H]2[C@H](NC(=O)[C@H](NC(=O)N3CCNC3=O)c3ccccc3)C(=O)N2[C@H]1C(=O)O [Azlocillin sodium salt] | 0.0159 °C |
| CC(C)c1ccc2oc3nc(N)c(C(=O)O)cc3c(=O)c2c1 [Amlexanox] | 0.115 °C |
| CCn1c2ccccc2c2cc(Nc3ccnc(NCCCN4CCOCC4)n3)ccc21 | -0.357 °C |
| O=C1[C@H](Cc2ccc(O)cc2)N2C(=O)CCN(C(=O)NCc3ccccc3)[C@H]2CN1Cc1cccc2ccccc12 | 0.16 °C and 0.0929 °C |
| CC1=C(O)C(=O)C=C2C1=CC=C1[C@@]2(C)CC[C@@]2(C)[C@@H]3C[C@](C)(C(=O)O)CC[C@]3(C)CC[C@]12C [Celastrol] | 0.193 °C |
| CC(C)(O)C(Cl)(Cl)Cl [Chlorobutanol] | 0.218 °C |
| Cc1cc(-c2nnc(N)nc2-c2ccc(F)cc2)cc(Cl)n1 | -0.0421 °C |

| SMILES | thermal shift ΔTm of Mpro |
| --- | --- |
| Cc1cc2c(cc1S(N)(=O)=O)S(=O)(=O)CCC2 [Meticrane] | -0.00985 °C |
| COCCOc1cnc2ccn([C@H](C)c3nnc4c(F)cc(-c5cnn(C)c5)cn34)c(=O)c2c1 | -0.0706 °C |
| Cc1c(NC(=O)c2cc(C(N)=O)nc3cc(F)ccc23)c(C(F)(F)F)nn1Cc1ccc(C#N)cc1 | -0.00333 °C |
| Oc1cccc2cccnc12 [Hydroxyquinoline] | 0.0459 °C |
| NCCNCCNCCNCCN [Tetraethylenepentamine Pentahydrochloride] | 0.256 °C |
| Clc1cnccn1 [2-Chloropyrazine] | 0.217 °C |
| CC(C)OC(=O)[C@H](C)N[P@](=O)(OC[C@H]1O[C@@H](n2ccc(=O)[nH]c2=O)[C@](C)(F)[C@@H]1O)Oc1ccccc1 [Sofosbuvir (PSI-7977, GS-7977)] | -0.0447 °C |
| Nc1nc2c(ncn2[C@@H]2O[C@H](CO)[C@@H](O)[C@H]2O)c(=O)[nH]1 [Guanosine] | 0.0217 °C |
| CN1C(C)(C)CCCC1(C)C [Pempidine] | 0.0168 °C |
| C[C@@]1(F)[C@H](O)[C@@H](CO)O[C@H]1n1ccc(=O)[nH]c1=O | 0.374 °C |
| Cn1cc(-c2ccc3ncc(Cc4ccc5ncccc5c4)n3n2)cn1 | -0.0696 °C |
| COc1cc2ncnc(N(C)c3cccc(Br)c3)c2cc1OC | -0.0206 °C |
| CCN(CC)CCOCCO [Diethylaminoethoxyethanol] | 0.154 °C |
| Cc1cc(NC(=O)Nc2ccc(N(C)C)cc2)c2cc(F)cc(F)c2n1 | -0.0543 °C |
| Cc1onc(-c2c(Cl)cccc2Cl)c1C(=O)N[C@@H]1C(=O)N2[C@@H]1SC(C)(C)[C@@H]2C(=O)O [Dicloxacillin Sodium] | -0.0877 °C |
| CN(C)/N=N/c1[nH]cnc1C(N)=O [Dacarbazine] | 0.239 °C |
| CC1C(=O)OC2C(O)C34C5CC(C(C)(C)C)C36C(OC(=O)C6O)OC4(C(=O)O5)C12O (configuration not stated) [Ginkgolide B] | 0.388 °C |
| COCCCOc1ccnc(CSc2nc3ccccc3[nH]2)c1C [Rabeprazole Related Compound E] | 0.139 °C |
| O=c1ccc2ccc(OCCCCN3CCN(c4cccc5sccc45)CC3)cc2[nH]1 [Brexpiprazole] | 0.00226 °C |
